Screen size: about 580,000 compounds; about 6,100 (1.1%) were called active. The inconclusive results got no clear call from the source; some entries with a clear call stand among them for comparison. Calls come from the whole dose curve; as a rule, active = well fitted inhibition curve with a large enough effect; inconclusive = small, poorly fitted or top-dose-only effect, or another doubt; inactive = no such curve, though single readings can be large or run the other way. Where the call is inconclusive, the potency comes from a doubtful curve fit.
target: Polyunsaturated fatty acid lipoxygenase ALOX12 (Homo sapiens) (UniProt P18054); assay: Primary qHTS assay for inhibitors of human arachidonate 12S-lipoxygenase (ALOX12): Round 2; settings: purified 12hLO, xylenol orange hydroperoxide absorbance; series mostly up to 108 µM
In short: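 Purified human 12hLO at 150 nM in 25 mM Hepes, 0.01% Triton X-100, pH 7.0, preincubated 15 min at room temperature with compound. Reaction started with 40 uM arachidonic acid, 30 min at room temperature. Hydroperoxide measured by Fe-xylenol orange, 573/405 nm absorbance ratio.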
Potency is the fitted concentration of half-maximal effect.

Chains of the proteins cited; added tags and fusions are not shown. Lines headed by an entry give the natural chain unless they say otherwise; changes in a name come on top.
UniProt P18054: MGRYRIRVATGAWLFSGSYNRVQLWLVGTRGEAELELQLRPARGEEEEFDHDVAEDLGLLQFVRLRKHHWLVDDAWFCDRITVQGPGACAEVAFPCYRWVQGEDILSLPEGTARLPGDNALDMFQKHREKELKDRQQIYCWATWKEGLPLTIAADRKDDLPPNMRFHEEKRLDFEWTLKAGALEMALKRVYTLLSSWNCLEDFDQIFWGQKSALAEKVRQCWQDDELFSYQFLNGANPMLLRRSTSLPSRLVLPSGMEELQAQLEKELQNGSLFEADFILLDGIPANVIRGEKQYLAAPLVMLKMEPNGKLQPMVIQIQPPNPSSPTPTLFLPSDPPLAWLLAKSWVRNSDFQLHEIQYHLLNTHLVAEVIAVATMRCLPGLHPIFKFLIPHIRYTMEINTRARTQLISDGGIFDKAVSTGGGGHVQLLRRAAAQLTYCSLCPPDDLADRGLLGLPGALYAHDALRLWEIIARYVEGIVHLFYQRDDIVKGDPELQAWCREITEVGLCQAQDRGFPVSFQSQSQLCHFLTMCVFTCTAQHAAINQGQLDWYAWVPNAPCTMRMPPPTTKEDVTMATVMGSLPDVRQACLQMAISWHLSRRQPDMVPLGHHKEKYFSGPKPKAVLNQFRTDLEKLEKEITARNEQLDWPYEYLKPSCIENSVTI

Structure (SMILES)	Potency
COc1ccc(-c2oc3ccc(N4CCOCC4)cc3c2C#CC2(O)CCCCC2)cc1	inconclusive: 4.47 µM [inhibitor, full curve, poor fit]
COc1ccccc1CNc1nc2cc(-c3ccccc3C)sc2c(=O)n1C	inactive
Cc1ccc(-c2nc(C#N)c(NCC(c3cccs3)N3CCOCC3)o2)cc1 (stereo not given)	inactive
C=CCNc1nc(NCc2ccc(N(C)C)cc2)c2sc(-c3ccccc3)cc2n1	inconclusive: 39.8 µM [inhibitor, partial curve, poor fit]
Cc1sc2nc(N(CCO)CCO)n3nc(-c4ccccc4)nc3c2c1C	inconclusive: 12.6 µM [inhibitor, full curve, poor fit]
CCOC(=O)C1=CCN(S(=O)(=O)c2ccc(C)cc2)C1c1ccc(C)cc1 (stereo not given)	inactive
O=C(NCc1ccccc1)c1cc2cc(F)ccc2[nH]1	inactive
CCOC(=O)N1CCC(NC(=O)c2ccc3c(c2)N(C)C(=O)/C(=C/c2cccc(OC)c2)S3)CC1	inactive
c1ccc(-c2cn3c4ccccc4nc3n2CCN2CCCCC2)cc1	inconclusive: 44.7 µM [inhibitor, partial curve, poor fit]
CC(C)c1ccc(C2c3[nH]c4ccccc4c3C[C@H]3C(=O)N(c4ccccc4C(=O)N4CCC[C@H]4C(=O)O)C(=O)N23)cc1 (stereo not given in full)	inconclusive: 70.8 µM [inhibitor, partial curve, poor fit]
O=C(Nc1nc(-c2ccc(Cl)cc2)cs1)c1cccnc1	inconclusive: 12.6 µM [inhibitor, partial curve, poor fit]
Cc1cccc(-c2noc(-c3ccccc3C(=O)NCc3ccco3)n2)c1	inconclusive: 89.1 µM [inhibitor, single point]
CC(C)CNC(=O)c1cc2cc(N(C)S(=O)(=O)c3ccc(Cl)cc3)ccc2s1	inactive
COc1ccc(CN(CCC#N)C(=S)NC(=O)c2ccccc2)cc1	inactive
O=C1N(Cc2cccnc2)C[C@@H]2C[C@@H](c3cccc(OC4CCCC4)c3)N3CCC[C@@]123	inconclusive: 2.24 µM [inhibitor, full curve, poor fit]
CCc1ccc(C2=C(C)C(N3CCC(C(=O)NCc4ccc(C)o4)CC3)=NS2(=O)=O)cc1	inconclusive: 56.2 µM [inhibitor, partial curve, poor fit]
CCCCNC(=O)[C@@H](c1ccccc1)N1Cc2ccccc2C1=O	inactive
COc1ccc(CC(=O)n2nc(C)c(S(=O)(=O)N3CCc4ccccc4C3)c2C)cc1	inconclusive: 39.8 µM [inhibitor, partial curve, poor fit]
O=C(COc1ccccc1F)Nc1nnc(-c2ccncc2)s1	inconclusive: 12.6 µM [inhibitor, partial curve]
CN(C)CCCN1c2ccccc2Sc2ccc3ccccc3c21	inconclusive: 50.1 µM [inhibitor, partial curve, poor fit]

Fetched by compound from the list above:
Structure (SMILES)	Potency
O=C(NCc1ccccc1)c1cc2cc(F)ccc2[nH]1	inactive
CCOC(=O)C1=CCN(S(=O)(=O)c2ccc(C)cc2)C1c1ccc(C)cc1 (stereo not given)	inactive

Continuation:

Structure (SMILES)	Potency
N#C/C(=C\c1ccc(F)cc1)C(=O)NC1CCS(=O)(=O)C1 (stereo not given)	inconclusive: 141 µM [inhibitor, partial curve, poor fit]
Cc1ccc(S(=O)(=O)N2CCC(C(=O)NCCCN3CCCCCC3)CC2)cc1	inconclusive: 44.7 µM [inhibitor, partial curve, poor fit]
CCn1c(-c2ccc(OC)c(OC)c2)n[nH]c1=S	inconclusive: 35.5 µM [inhibitor, partial curve, poor fit]
O=C(O)c1ccc(NC(=S)Nc2ccc(S(=O)(=O)Nc3ccccn3)cc2)cc1	inconclusive: 56.2 µM [inhibitor, partial curve, poor fit]
O=C(c1ccc(F)c(S(=O)(=O)N2CCOCC2)c1)N1CCN(c2ncccn2)CC1	inconclusive: 178 µM [inhibitor, partial curve, poor fit]
COc1ccc2nc(N/C(N)=N/C(=S)Nc3c(C)cccc3C)nc(C)c2c1	inconclusive: 89.1 µM [inhibitor, single point]
O=C(c1ccco1)N1CCC2(CC1)CC(N(Cc1ccccc1)C1CC1)CCO2 (stereo not given)	inactive
CCCn1c(N)c(C(=O)CSc2nnc3ccccn23)c(=O)[nH]c1=O	inactive
CN1c2cc(C(=O)NCc3cccs3)ccc2C(=O)N2CCCC21 (stereo not given)	inactive
COCCNc1nc(-c2cc(C)n(CCc3ccc(OC)cc3)c2C)cs1	inconclusive: 44.7 µM [inhibitor, partial curve]
COc1ccc(CSc2nnnn2-c2ccccc2)cc1	inconclusive: 35.5 µM [inhibitor, partial curve, poor fit]
CC(C)(C)CC(C)(C)NC(=O)C(=O)c1cccnc1	inconclusive: 70.8 µM [inhibitor, single point]
O=C(CCN1C(=O)/C(=C\c2ccco2)SC1=S)Nc1ccc(C(=O)O)c(O)c1	inconclusive: 35.5 µM [inhibitor, partial curve, poor fit]
CC(C)c1noc(CC2CCN(C(=O)c3ccc(F)c(Cl)c3)CC2)n1	inactive
Cc1ccc(-n2c(=O)c3ccc(C(=O)NCc4ccccc4Cl)cc3n(CC(N)=O)c2=O)cc1	inconclusive: 79.4 µM [inhibitor, partial curve, poor fit]
O=C(COC(=O)c1ccc(S(=O)(=O)NCc2ccco2)cc1)NCC1CCCCC1	inconclusive: 89.1 µM [inhibitor, single point]
Cc1nn(-c2ncccn2)c2c1C(c1cccc(OCC(C)C)c1)CC(=O)N2 (stereo not given)	inconclusive: 35.5 µM [inhibitor, partial curve, poor fit]
CCOc1cccc(CN2CCCC(N3CCN(c4cccc(Cl)c4)CC3)C2)c1O (stereo not given)	inactive
COCCN1C(=O)C(=O)/C(=C(/O)c2ccc3c(c2)OCCO3)C1c1ccc(C(=O)OC)cc1 (stereo not given)	inconclusive: 4.47 µM [inhibitor, full curve, poor fit]
O=C1CO[C@H](c2ccc(NS(=O)(=O)c3cccc(F)c3)cc2)[C@@H](CO)N1Cc1ccncc1	inconclusive: 79.4 µM [inhibitor, partial curve, poor fit]

From PubChem BioAssay AID1671190 (National Center for Advancing Translational Sciences (NCATS), 2021)
